Data taken from patent publication US8026262B2, “Chemical compounds” (GlaxoSmithKline LLC, priority 2006, dated 2011).
Some results were stated once for a whole list of compounds, not compound by compound.

Each molecule was assayed against T1, human AR (Homo sapiens, UniProt P10275) (assay: AR functional assay (agonist mode), MMTV luciferase reporter in transfected CV-1 cells). Settings: CV-1 cells transfected with human AR and MMTV luciferase, values said to be exemplary only.
T1 sequence (P10275 560-920 limits assumed): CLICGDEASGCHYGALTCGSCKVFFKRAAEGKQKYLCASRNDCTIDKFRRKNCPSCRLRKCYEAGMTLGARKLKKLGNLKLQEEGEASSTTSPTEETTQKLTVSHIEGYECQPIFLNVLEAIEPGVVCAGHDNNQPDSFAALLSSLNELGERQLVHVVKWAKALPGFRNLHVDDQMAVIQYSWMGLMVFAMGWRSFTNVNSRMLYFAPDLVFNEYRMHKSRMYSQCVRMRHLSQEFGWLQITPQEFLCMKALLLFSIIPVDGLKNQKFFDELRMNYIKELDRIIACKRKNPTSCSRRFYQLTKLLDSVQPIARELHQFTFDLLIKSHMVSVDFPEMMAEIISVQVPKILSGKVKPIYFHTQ
Type: cell-based

| Structure (SMILES) | pIC50 in the agonist mode of the AR functional assay |
| --- | --- |
| CCCc1cc2c(C(F)(F)F)c(C#N)ccc2n1Cc1noc(-c2cc([N+](=O)[O-])ccc2Cl)n1 [Example 294, 1-{[5-(2-Chloro-5-nitrophenyl)-1,2,4-oxadiazol-3-yl]methyl}-2-propyl-4-(trifluoromethyl)-1H-indole-5-carbonitrile] | ≥ 5.01 |
| CCCc1cc2c(C(F)(F)F)c(C#N)ccc2n1Cc1noc(-c2cc(C(N)=O)ccc2Cl)n1 [Example 295, 4-Chloro-3-(3-{[5-cyano-2-propyl-4-(trifluoromethyl)-1H-indol-1-yl]methyl}-1,2,4-oxadiazol-5-yl)benzamide] | ≥ 5.01 |
| CCCc1cc2c(C(F)(F)F)c(C#N)ccc2n1Cc1noc(-c2cc(C(=O)NC)ccc2Cl)n1 [Example 296, 4-Chloro-3-(3-{[5-cyano-2-propyl-4-(trifluoromethyl)-1H-indol-1-yl]methyl}-1,2,4-oxadiazol-5-yl)-N-methylbenzamide] | ≥ 5.01 |
| CCCc1cc2c(C(F)(F)F)c(C#N)ccc2n1Cc1noc(-c2cc(C(=O)N(C)C)ccc2Cl)n1 [Example 297, 4-Chloro-3-(3-{[5-cyano-2-propyl-4-(trifluoromethyl)-1H-indol-1-yl]methyl}-1,2,4-oxadiazol-5-yl)-N,N-dimethylbenzamide] | ≥ 5.01 |
| CCCc1cc2c(C(F)(F)F)c(C#N)ccc2n1Cc1noc(-c2ccccc2SC)n1 [Example 298, 1-({5-[2-(Methylthio)phenyl]-1,2,4-oxadiazol-3-yl}methyl)-2-propyl-4-(trifluoromethyl)-1H-indole-5-carbonitrile] | ≥ 5.01 |
| CCCc1cc2c(C(F)(F)F)c(C#N)ccc2n1Cc1noc(N(C)C)n1 [Example 299, 1-{[5-(Dimethylamino)-1,2,4-oxadiazol-3-yl]methyl}-2-propyl-4-(trifluoromethyl)-1H-indole-5-carbonitrile] | ≥ 5.01 |
| CCCc1cc2c(C(F)(F)F)c(C#N)ccc2n1Cc1noc(-c2cc(SC)ccc2Cl)n1 [Example 300, 1-({5-[2-Chloro-5-(methylthio)phenyl]-1,2,4-oxadiazol-3-yl}methyl)-2-propyl-4-(trifluoromethyl)-1H-indole-5-carbonitrile] | ≥ 5.01 |
| CCCc1cc2c(C(F)(F)F)c(C#N)ccc2n1Cc1noc(-c2cc(S(C)(=O)=O)ccc2Cl)n1 [Example 301, 1-({5-[2-Chloro-5-(methylsulfonyl)phenyl]-1,2,4-oxadiazol-3-yl}methyl)-2-propyl-4-(trifluoromethyl)-1H-indole-5-carbonitrile] | ≥ 5.01 |
| N#Cc1ccc2c(cc(CCC(F)(F)F)n2CC(N)=O)c1C(F)(F)F [Example 302, 2-[5-Cyano-4-(trifluoromethyl)-2-(3,3,3-trifluoropropyl)-1H-indol-1-yl]acetamide] | ≥ 5.01 |
| N#Cc1ccc2c(cc(CCC(F)(F)F)n2Cc2noc(-c3cc(F)cc(F)c3)n2)c1C(F)(F)F [Example 303, 1-{[5-(3,5-Difluorophenyl)-1,2,4-oxadiazol-3-yl]methyl}-4-(trifluoromethyl)-2-(3,3,3-trifluoropropyl)-1H-indole-5-carbonitrile] | ≥ 5.01 |
| N#Cc1ccc2c(cc(CCC(F)(F)F)n2Cc2noc(-c3cccc(C(F)(F)F)c3)n2)c1C(F)(F)F [Example 304, 4-(Trifluoromethyl)-1-({5-[3-(trifluoromethyl)phenyl]-1,2,4-oxadiazol-3-yl}methyl)-2-(3,3,3-trifluoropropyl)-1H-indole-5-carbonitrile] | ≥ 5.01 |
| N#Cc1ccc2c(cc(CCC(F)(F)F)n2Cc2noc(-c3cncc(Br)c3)n2)c1C(F)(F)F [Example 305, 1-{[5-(5-Bromo-3-pyridinyl)-1,2,4-oxadiazol-3-yl]methyl}-4-(trifluoromethyl)-2-(3,3,3-trifluoropropyl)-1H-indole-5-carbonitrile] | ≥ 5.01 |
| Cc1cc2c(C(F)(F)F)c(C#N)ccc2n1Cc1noc(-c2cc(C(F)(F)F)ccc2F)n1 [Example 309, 1-({5-[2-Fluoro-5-(trifluoromethyl)phenyl]-1,2,4-oxadiazol-3-yl}methyl)-2-methyl-4-(trifluoromethyl)-1H-indole-5-carbonitrile] | ≥ 5.01 |
| Cc1cc2c(C(F)(F)F)c(C#N)ccc2n1Cc1csc(-c2cccc(C(F)(F)F)c2)n1 [Example 311, 2-Methyl-4-(trifluoromethyl)-1-({2-[3-(trifluoromethyl)phenyl]-1,3-thiazol-4-yl}methyl)-1H-indole-5-carbonitrile] | ≥ 5.01 |
| Cc1cc2c(C(F)(F)F)c(C#N)ccc2n1Cc1csc(-c2cc(F)cc(F)c2)n1 [Example 312, 1-{[2-(3,5-Difluorophenyl)-1,3-thiazol-4-yl]methyl}-2-methyl-4-(trifluoromethyl)-1H-indole-5-carbonitrile] | ≥ 5.01 |
| Cc1cc2c(C(F)(F)F)c(C#N)ccc2n1Cc1csc(-c2cc(C(F)(F)F)cc(C(F)(F)F)c2)n1 [Example 313, 1-({2-[3,5-bis(Trifluoromethyl)phenyl]-1,3-thiazol-4-yl}methyl)-2-methyl-4-(trifluoromethyl)-1H-indole-5-carbonitrile] | ≥ 5.01 |
| Cc1cc2c(C(F)(F)F)c(C#N)ccc2n1Cc1ccc(-c2cccc(C(F)(F)F)c2)s1 [Example 314, 2-Methyl-4-(trifluoromethyl)-1-({5-[3-(trifluoromethyl)phenyl]-2-thienyl}methyl)-1H-indole-5-carbonitrile] | ≥ 5.01 |
| Cc1cc2c(C(F)(F)F)c(C#N)ccc2n1Cc1ccc(-c2cc(F)cc(F)c2)s1 [Example 315, 1-{[5-(3,5-Difluorophenyl)-2-thienyl]methyl}-2-methyl-4-(trifluoromethyl)-1H-indole-5-carbonitrile] | ≥ 5.01 |
| Cc1cc2c(C(F)(F)F)c(C#N)ccc2n1Cc1ccc(-c2cc(C(F)(F)F)cc(C(F)(F)F)c2)s1 [Example 316, 1-({5-[3,5-bis(Trifluoromethyl)phenyl]-2-thienyl}methyl)-2-methyl-4-(trifluoromethyl)-1H-indole-5-carbonitrile] | ≥ 5.01 |
| Cc1cc2c(C(F)(F)F)c(C#N)ccc2n1Cc1cnc(-c2cc(C(F)(F)F)cc(C(F)(F)F)c2)s1 [Example 321, 1-({2-[3,5-bis(Trifluoromethyl)phenyl]-1,3-thiazol-5-yl}methyl)-2-methyl-4-(trifluoromethyl)-1H-indole-5-carbonitrile] | ≥ 5.01 |
| Cc1cc2c(C(F)(F)F)c(C#N)ccc2n1Cc1cc(-c2cc(C(F)(F)F)cc(C(F)(F)F)c2)on1 [Example 323, 1-({5-[3,5-bis(Trifluoromethyl)phenyl]-3-isoxazolyl}methyl)-2-methyl-4-(trifluoromethyl)-1H-indole-5-carbonitrile] | ≥ 5.01 |
| Cc1cc2c(C(F)(F)F)c(C#N)ccc2n1Cc1cc(-c2cccc(C(F)(F)F)c2)on1 [Example 324, 2-Methyl-4-(trifluoromethyl)-1-({5-[3-(trifluoromethyl)phenyl]-3-isoxazolyl}methyl)-1H-indole-5-carbonitrile] | ≥ 5.01 |
| Cc1cc2c(C(F)(F)F)c(C#N)ccc2n1Cc1cc(Br)no1 [Example 325, 1-[(3-Bromo-5-isoxazolyl)methyl]-2-methyl-4-(trifluoromethyl)-1H-indole-5-carbonitrile] | ≥ 5.01 |
| Cc1cc2c(C(F)(F)F)c(C#N)ccc2n1Cc1nsc(Cl)n1 [Example 326, 1-[(5-Chloro-1,2,4-thiadiazol-3-yl)methyl]-2-methyl-4-(trifluoromethyl)-1H-indole-5-carbonitrile] | ≥ 5.01 |
| Cc1cc2c(C(F)(F)F)c(C#N)ccc2n1Cc1nsc(-c2cc(C(F)(F)F)cc(C(F)(F)F)c2)n1 [Example 327, 1-({5-[3,5-bis(Trifluoromethyl)phenyl]-1,2,4-thiadiazol-3-yl}methyl)-2-methyl-4-(trifluoromethyl)-1H-indole-5-carbonitrile] | ≥ 5.01 |
| Cc1cc2c(C(F)(F)F)c(C#N)ccc2n1Cc1nsc(-c2cccc(C(F)(F)F)c2)n1 [Example 328, 2-Methyl-4-(trifluoromethyl)-1-({5-[3-(trifluoromethyl)phenyl]-1,2,4-thiadiazol-3-yl}methyl)-1H-indole-5-carbonitrile] | ≥ 5.01 |
| Cc1cc2c(C(F)(F)F)c(C#N)ccc2n1[C@H](C)CO [Example 329, 1-[(1R)-2-Hydroxy-1-methylethyl]-2-methyl-4-(trifluoromethyl)-1H-indole-5-carbonitrile] | ≥ 5.01 |
| CC(=O)Nc1ccc(OC[C@@H](C)n2c(C)cc3c(C(F)(F)F)c(C#N)ccc32)cc1 [Example 330, N-[4-({(2R)-2-[5-Cyano-2-methyl-4-(trifluoromethyl)-1H-indol-1-yl]propyl}oxy)phenyl]acetamide] | ≥ 5.01 |
| Cc1cc2c(C(F)(F)F)c(C#N)ccc2n1[C@H](C)COc1ccc(F)nc1 [Example 331, 1-{(1R)-2-[(6-Fluoro-3-pyridinyl)oxy]-1-methylethyl}-2-methyl-4-(trifluoromethyl)-1H-indole-5-carbonitrile] | ≥ 5.01 |
